Test results reported in patent US20250145716A1.
No constants are given. Whether binding was seen depends on the method and setting.

Chains of the proteins cited; added tags and fusions are not shown. Residues count along the entry.
UniProt Q9BQ51, residues 20-219: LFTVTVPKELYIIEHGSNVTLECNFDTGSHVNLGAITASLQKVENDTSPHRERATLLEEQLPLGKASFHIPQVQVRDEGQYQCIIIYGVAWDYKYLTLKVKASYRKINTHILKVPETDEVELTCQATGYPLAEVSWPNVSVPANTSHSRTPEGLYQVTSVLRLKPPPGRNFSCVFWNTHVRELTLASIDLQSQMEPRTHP
UniProt P42081, residues 24-247: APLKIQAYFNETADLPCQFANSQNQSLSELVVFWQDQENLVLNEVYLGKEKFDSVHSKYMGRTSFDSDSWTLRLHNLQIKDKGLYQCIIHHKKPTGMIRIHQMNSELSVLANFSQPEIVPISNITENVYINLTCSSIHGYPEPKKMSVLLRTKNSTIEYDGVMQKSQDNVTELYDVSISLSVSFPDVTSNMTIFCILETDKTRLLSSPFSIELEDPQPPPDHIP

Key:
[1] = target: human PD-L2 (RD Systems 9075-PL) (human) (UniProt Q9BQ51); assay: ELISA, plate-coated human PD-L2, OD 450 nm
[2] = target: T1, human B7-H2 (RD Systems 8206-B7) (human) (UniProt O75144); assay: ELISA, plate-coated human B7-H2, OD 450 nm
T1 sequence (looked up): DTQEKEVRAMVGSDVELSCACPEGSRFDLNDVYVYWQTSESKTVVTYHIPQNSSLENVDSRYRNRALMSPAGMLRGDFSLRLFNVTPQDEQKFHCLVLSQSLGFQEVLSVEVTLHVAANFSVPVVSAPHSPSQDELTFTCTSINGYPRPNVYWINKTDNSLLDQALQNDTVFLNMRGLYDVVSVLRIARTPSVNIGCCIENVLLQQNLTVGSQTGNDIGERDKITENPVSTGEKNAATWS

[3] = target: human B7-2/CD86 (RD Systems 9090-B2) (human) (UniProt P42081); assay: ELISA, plate-coated human B7-2/CD86, OD 450 nm
[4] = target: T2, human B7-H3 (RD Systems 1949-B3) (human) (UniProt Q5ZPR3); assay: ELISA, plate-coated human B7-H3, OD 450 nm
T2 sequence (looked up): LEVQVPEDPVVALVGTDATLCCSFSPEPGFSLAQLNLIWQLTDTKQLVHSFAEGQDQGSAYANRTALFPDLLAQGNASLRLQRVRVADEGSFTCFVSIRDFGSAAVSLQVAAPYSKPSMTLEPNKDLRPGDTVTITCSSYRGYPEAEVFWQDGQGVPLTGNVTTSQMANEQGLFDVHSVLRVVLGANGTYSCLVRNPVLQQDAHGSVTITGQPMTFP

[5] = target: T1, human B7-H2 (RD Systems 8206-B7) (human); assay: ELISA, ligand coated at 1 µg/mL, 8 antibody concentrations
[6] = target: human B7-1/CD80 (RD Systems 9050-B1) (human) (UniProt P33681); assay: as above
[7] = target: human B7-2/CD86 (RD Systems 9090-B2) (human) (UniProt P42081); assay: as above
[8] = target: human PD-L2 (RD Systems 9075-PL) (human) (UniProt Q9BQ51); assay: as above
[9] = target: T2, human B7-H3 (RD Systems 1949-B3) (human); assay: as above
[10] = target: human B7-1/CD80 (RD Systems 9050-B1) (human) (UniProt P33681); assay: ELISA, plate-coated human B7-1/CD80, OD 450 nm

B1: 1P9 (antibody, V domains shown)
VH: EVQLVESGGGLVQPGGSLRLSCAASGFTFSTYWMSWVRQAPGKGLEWVANIKQDGGERYYVDSVKGRFTISRDNAKSSLYLQMNSLRAEDTALYYCARLRLYSDYEDYWGQGTLVTVSS
VL: DIQMTQSPSSVSASVGDRVTITCRASQGISSWLAWYQQKPGKAPKLLIYSVSSLQSGVPSRFSGSGSGTDFTLTISSLQPEDSATYYCQQANSLPPTFGGGTKVEIK
binding [1]: no binding (tested: about 4000 ng/mL) | binding [2]: no binding (tested: about 4000 ng/mL) | binding [3]: no binding (tested: about 4000 ng/mL) | binding [4]: no binding (tested: about 4000 ng/mL) | binding [5]: no binding (tested: 1 ng/mL to 3 mg/mL) | binding [6]: no binding (tested: 1 ng/mL to 3 mg/mL) | binding [7]: no binding (tested: 1 ng/mL to 3 mg/mL) | binding [8]: no binding (tested: 1 ng/mL to 3 mg/mL) | binding [9]: no binding (tested: 1 ng/mL to 3 mg/mL) | binding [10]: no binding (tested: about 4000 ng/mL)
